Data on 68 molecules can be found in the supplement of paper PMC4683952.

Where a name gives a salt, the structure may show the parent alone. The whole screen tested about 1,200 compounds, of which about 50 (4%) showed activity. Cut-off read from the data, not from the text of the source: all actives reach 1.3 or more but so do some inactives. Some of the results follow.

The subject of this assay is Lgr5 (MarsCy1-Lgr5-EGFP, U2OS). In words: cell-surface Lgr5 expression (SCi1 fluorescence, background-subtracted) relative to WT DMSO (fold of DMSO control); higher = more Lgr5 at the plasma membrane, active = hit call of the paper. To be noted: U2OS MarsCy1-Lgr5-EGFP stable; treatment time: overnight; 16 µM; library: Johns Hopkins Clinical Compound Library.
For `COc1cccc2c1[C@@H]1CN(CCCCn3c(=O)[nH]c4c(sc5ncc(-c6ccccc6)nc54)c3=O)C[C@@H]1CO2` [Fiduxosin], the “cell-surface Lgr5 expression” value is inactive: 1.09.

As to `Nc1nc(Cl)nc2c1ncn2[C@H]1C[C@H](O)[C@@H](CO)O1` [Cladribine (2-chloro,2-deoxyadenosine)], the “cell-surface Lgr5 expression” value was inactive: 0.832.

For `CN[C@@H]1[C@H](O[C@H]2[C@H](O[C@H]3[C@H](O)[C@@H](O)[C@H](N=C(N)N)[C@@H](O)[C@@H]3N=C(N)N)O[C@@H](C)[C@]2(O)C=O)O[C@@H](CO)[C@H](O)[C@H]1O` [Streptomycin sulfate], the “cell-surface Lgr5 expression” value is inactive: 1.05.

Regarding `CNCCCC1c2ccccc2C=Cc2ccccc21` [Protriptyline], the “cell-surface Lgr5 expression” value was inactive: 0.38.

In the case of `COC(=O)c1cccnc1` [Methyl nicotinate], the “cell-surface Lgr5 expression” value was inactive: 1.24.

For the molecule `COc1ccc(CCN(C)CCCC(C#N)(c2ccc(OC)c(OC)c2)C(C)C)cc1OC` (stereo not drawn) [Verapamil], the “cell-surface Lgr5 expression” value was inactive: 0.834.

Take `[Cl-].[Rb+]` [Rubidium Chloride]: the “cell-surface Lgr5 expression” value is inactive: 0.62.

Regarding `CCCc1cc(=O)[nH]c(=S)[nH]1` [Propylthiouracil (6-n-Propyl-2-thiouracil)], the “cell-surface Lgr5 expression” value was inactive: 0.953.

Regarding `C[N+]1(CCCCC[N+]2(C)CCCC2)CCCC1` [Pentolinium], the “cell-surface Lgr5 expression” value was inactive: 0.948.

Take `O.O.O.O.O.O.[Cl-].[Cl-].[Sr+2]` [Strontium chloride hexahydrate]: the “cell-surface Lgr5 expression” value is inactive: 1.29.

As to `C[C@]12CC[C@@H]3c4ccc(O)cc4CC[C@H]3[C@@H]1CC[C@@H]2O` [β-Estradiol], the “cell-surface Lgr5 expression” value was inactive: 1.15.

In the case of `CCCN(CCC)S(=O)(=O)c1ccc(C(=O)O)cc1` [Probenecid], the “cell-surface Lgr5 expression” value was inactive: 1.01.

In the case of `CCN(CC)C(=O)c1cccnc1` [Nikethamide (N,N Diethylnicotinamide)], the “cell-surface Lgr5 expression” value is inactive: 1.25.

For the molecule `O=P(O)(O)OC1C(OP(=O)(O)O)C(OP(=O)(O)O)C(OP(=O)(O)O)C(OP(=O)(O)O)C1OP(=O)(O)O` (stereo not drawn) [Phytic acid, dodecasodium salt hydrate], the “cell-surface Lgr5 expression” value is inactive: 0.522.

In the case of `COc1ccc2[nH]c([S+]([O-])Cc3ncc(C)c(OC)c3C)nc2n1` (stereo not drawn) [Tenatoprazole], the “cell-surface Lgr5 expression” value was inactive: 1.17.

As for `CN(C)CCOC(c1ccccc1)c1ccccc1` [Diphenhydramine], the “cell-surface Lgr5 expression” value is inactive: 1.13.

With `O=Cc1cc(Br)cc(Br)c1O` [3,5-Dibromosalicylaldehyde], the “cell-surface Lgr5 expression” value was inactive: 1.17.

Regarding `CC(=O)[C@H]1CC[C@H]2[C@@H]3CCC4=CC(=O)CC[C@]4(C)[C@H]3CC[C@]12C` [Progesterone], the “cell-surface Lgr5 expression” value was inactive: 1.16.

`C[C@@H](O)CCCCn1c(=O)c2c(ncn2C)n(C)c1=O` [Lisofylline]: the “cell-surface Lgr5 expression” value is inactive: 1.14.

Turning to `O.[Al+3].[Al+3].[Cl-].[OH-].[OH-].[OH-].[OH-].[OH-]` [Aluminum chlorohydrate], the “cell-surface Lgr5 expression” value is inactive: 0.754.

As for `O.O=C(O)[C@H](O)[C@@H](O)[C@H](O)[C@H](O)CO.O=C(O)[C@H](O)[C@@H](O)[C@H](O)[C@H](O)CO.[Fe]` [Ferrous gluconate hydrate], the “cell-surface Lgr5 expression” value was inactive: 0.892.

`N=C(N)NC(=O)Cc1c(Cl)cccc1Cl` [Guanfacine]: the “cell-surface Lgr5 expression” value was inactive: 1.19.

As to `O=S(O)(O)=S` [Sodium Thiosulfate], the “cell-surface Lgr5 expression” value was inactive: 1.04.

On to `COc1cc(O)c(C(=O)c2ccccc2)cc1S(=O)(=O)O` [Sulisobenzone (2-Hydroxy-4-methoxy-5-sulfobenzophenone)], for which the “cell-surface Lgr5 expression” value is inactive: 0.701.

As to `O=C(O)CC(O)(CC(=O)O)C(=O)O` [Citric acid], the “cell-surface Lgr5 expression” value is inactive: 1.15.

For the molecule `O=P([O-])([O-])O.[K+].[K+]` [Potassium phosphate dibasic], the “cell-surface Lgr5 expression” value is inactive: 1.09.

Regarding `CC(O)C(=O)O.N` (stereo not drawn) [Ammonium lactate], the “cell-surface Lgr5 expression” value was inactive: 0.823.

With `Nc1ccn([C@@H]2O[C@H](CO)[C@@H](O)C2(F)F)c(=O)n1` [Gemcitabine], the “cell-surface Lgr5 expression” value is inactive: 0.795.

For the molecule `CN1C(=O)CC(c2ccccc2)C1=O` (stereo not drawn) [Phensuximide], the “cell-surface Lgr5 expression” value was inactive: 0.589.

`CN(C)CCN(Cc1ccccc1)c1ccccn1` [Tripelennamine]: the “cell-surface Lgr5 expression” value was inactive: 1.14.

Consider `CC(O)C(=O)[O-].CC(O)C(=O)[O-].[Fe+2]` (stereo not drawn) [Ferrous lactate], for which the “cell-surface Lgr5 expression” value was inactive: 1.05.

In the case of `Clc1ccc(CSC(Cn2ccnc2)c2ccc(Cl)cc2Cl)cc1` (stereo not drawn) [Sulconazole], the “cell-surface Lgr5 expression” value is inactive: 0.608.

As for `COc1cc2c(cc1OC)[C@@H](Cc1cc(OC)c(OC)c(OC)c1)[N+](C)(CCCOC(=O)CC/C=C/CCC(=O)OCCC[N+]1(C)CCc3cc(OC)c(OC)cc3[C@H]1Cc1cc(OC)c(OC)c(OC)c1)CC2` (stereo partly drawn) [Mivacurium chloride], the “cell-surface Lgr5 expression” value is inactive: 1.16.

On to `CCCc1c2oc(C(=O)O)cc(=O)c2cc2c(=O)cc(C(=O)O)n(CC)c12` [Nedocromil sodium], for which the “cell-surface Lgr5 expression” value was inactive: 1.05.

In the case of `CC(=O)O[C@]1(C(C)=O)CC[C@H]2[C@@H]3C=C(Cl)C4=CC(=O)[C@@H]5C[C@@H]5[C@]4(C)[C@H]3CC[C@@]21C` [Cyproterone acetate], the “cell-surface Lgr5 expression” value is inactive: 1.25.

On to `Clc1ccc(CO/N=C(\Cn2ccnc2)c2ccc(Cl)cc2Cl)c(Cl)c1` [Oxiconazole nitrate], for which the “cell-surface Lgr5 expression” value is inactive: 0.871.

For the molecule `CC(=O)OC[C@H]1O[C@@H](n2ncc(=O)[nH]c2=O)[C@H](OC(C)=O)[C@@H]1OC(C)=O` [Azaribine (6-Azauridine 2',3',5'-triacetate)], the “cell-surface Lgr5 expression” value was inactive: 0.832.

For `N[C@@H]1CONC1=O` [d-Cycloserine], the “cell-surface Lgr5 expression” value is inactive: 1.29.

For the molecule `CCCCCCCCCCCCCCCC(=O)OC[C@@H](NC(=O)C(Cl)Cl)[C@H](O)c1ccc([N+](=O)[O-])cc1` [Chloramphenicol palmitate], the “cell-surface Lgr5 expression” value is inactive: 0.793.

Take `O=C([O-])[O-].[Mg+2]` [Magnesium carbonate]: the “cell-surface Lgr5 expression” value was inactive: 1.15.

As to `[K+].[OH-]` [Potassium hydroxide], the “cell-surface Lgr5 expression” value was inactive: 1.11.

Regarding `Clc1ccc(Cn2c(CN3CCCC3)nc3ccccc32)cc1` [Clemizole], the “cell-surface Lgr5 expression” value is inactive: 1.27.

Consider `COc1cc2nc(N(C)CCCNC(=O)C3CCCO3)nc(N)c2cc1OC` (stereo not drawn) [Alfuzosin], for which the “cell-surface Lgr5 expression” value was inactive: 0.846.

Consider `Nc1nc(O)c2ncn(COC(CO)CO)c2n1` [Ganciclovir sodium], for which the “cell-surface Lgr5 expression” value was inactive: 0.959.

Consider `O=[N+]([O-])c1ccc(/C=N/O)o1` [Nifuroxime], for which the “cell-surface Lgr5 expression” value is inactive: 0.992.

Consider `CC(=O)Oc1ccccc1C(=O)O` [Aspirin], for which the “cell-surface Lgr5 expression” value is inactive: 1.29.

Regarding `N=C(N)NS(=O)(=O)c1ccc(N)cc1` [Sulfaguanidine], the “cell-surface Lgr5 expression” value was inactive: 0.791.

Regarding `NC[C@@H]1CC[C@@H](N)[C@@H](O[C@H]2[C@H](O)[C@@H](O[C@H]3O[C@H](CO)[C@@H](O)[C@H](N)[C@H]3O)[C@H](N)C[C@@H]2N)O1` [Dibekacin], the “cell-surface Lgr5 expression” value is inactive: 0.922.

For the molecule `CC1=C(/C=C/C(C)=C/C=C/C(C)=C/C(=O)O)C(C)(C)CCC1` [Retinoic acid], the “cell-surface Lgr5 expression” value was inactive: 1.14.

With `CC1=C(/C=C/C(C)=C/C=C/C(C)=C/C(=O)O)C(C)(C)CCC1` [Tretinoin (Retinoic acid, all trans)], the “cell-surface Lgr5 expression” value is inactive: 1.17.

Regarding `NC(=O)c1cc[n+](CC2=C(C(=O)[O-])N3C(=O)[C@@H](NC(=O)[C@@H](c4ccccc4)S(=O)(=O)O)[C@H]3SC2)cc1` [Cefsulodin], the “cell-surface Lgr5 expression” value is inactive: 1.04.

With `O.O.O=P([O-])([O-])O.[Na+].[Na+]` [Sodium phosphate dibasic], the “cell-surface Lgr5 expression” value was inactive: 1.05.

With `CCc1c(C)[nH]c2c1C(=O)C(CN1CCOCC1)CC2` (stereo not drawn) [Molindone hydrochloride], the “cell-surface Lgr5 expression” value is inactive: 0.928.

As for `CC1=C(C(=O)O)N2C(=O)[C@@H](NC(=O)[C@H](N)C3=CCC=CC3)[C@H]2SC1` [Cephradine], the “cell-surface Lgr5 expression” value was inactive: 1.09.

On to `CCC1(c2ccccc2)NC(=O)N(C)C1=O` (stereo not drawn) [Mephenytoin], for which the “cell-surface Lgr5 expression” value was inactive: 0.694.

As to `CC1(C)[C@H](C(=O)O)N2C(=O)C[C@H]2S1(=O)=O` [Sulbactam], the “cell-surface Lgr5 expression” value is inactive: 1.08.

Consider `Cc1ncc(CO)c(CO)c1O` [Pyridoxine hydrochloride], for which the “cell-surface Lgr5 expression” value is inactive: 0.876.

Regarding `CO/N=C(\C(=O)N[C@@H]1C(=O)N2C(C(=O)O)=C(CSc3nc(=O)c(O)nn3C)CS[C@H]12)c1csc(N)n1` [Ceftriaxone], the “cell-surface Lgr5 expression” value was inactive: 0.933.

`C[C@]12CCC(=O)C=C1CC[C@@H]1[C@@H]2[C@@H](O)C[C@@]2(C)[C@H]1CC[C@]2(O)C(=O)COC(=O)CCC(=O)O` [Hydrocortisone hemisuccinate monohydrate]: the “cell-surface Lgr5 expression” value is active: 1.36.

In the case of `CCOC(=O)[C@H](CCc1ccccc1)N[C@H]1CCc2ccccc2N(CC(=O)O)C1=O` [Benazepril hydrochloride], the “cell-surface Lgr5 expression” value was inactive: 0.872.

On to `COC1=C(OC)C(=O)C(CCCCCCCCCCO)=C(C)C1=O` [Idebenone], for which the “cell-surface Lgr5 expression” value was inactive: 1.04.

Regarding `O=C1CCC(c2ccc(-n3ccnc3)cc2)=NN1` [Imazodan], the “cell-surface Lgr5 expression” value was inactive: 1.18.

On to `CCNC(=O)N1CCN(CCCC(c2ccc(F)cc2)c2ccc(F)cc2)CC1` [Amperozide], for which the “cell-surface Lgr5 expression” value is inactive: 1.4.

Consider `OB(O)O` [Boric acid], for which the “cell-surface Lgr5 expression” value was inactive: 1.05.

Regarding `COc1ccc(CN(CCN(C)C)c2ccccn2)cc1` [Pyrilamine], the “cell-surface Lgr5 expression” value is inactive: 0.94.

With `COc1ccc(CN(CCN(C)C)c2ccccn2)cc1` [Pyrilamine maleate (Mepyramine maleate)], the “cell-surface Lgr5 expression” value was inactive: 1.19.

As for `CC(=O)c1ccc(S(=O)(=O)NC(=O)NC2CCCCC2)cc1` [Acetohexamide], the “cell-surface Lgr5 expression” value was inactive: 0.898.

As to `CCCCC[C@H](O)/C=C/[C@@H]1[C@@H](C/C=C\CCCC(=O)O)[C@@H](O)C[C@H]1O` [Dinoprost tromethamine (Prostaglandin F2alpha tris salt)], the “cell-surface Lgr5 expression” value is inactive: 0.964.
